Consider 59 targets from the supplement of paper PMC6411743.

Chains of the proteins cited; added tags and fusions are not shown. Lines headed by an entry give the natural chain unless they say otherwise; changes in a name come on top.
UniProt Q86V85: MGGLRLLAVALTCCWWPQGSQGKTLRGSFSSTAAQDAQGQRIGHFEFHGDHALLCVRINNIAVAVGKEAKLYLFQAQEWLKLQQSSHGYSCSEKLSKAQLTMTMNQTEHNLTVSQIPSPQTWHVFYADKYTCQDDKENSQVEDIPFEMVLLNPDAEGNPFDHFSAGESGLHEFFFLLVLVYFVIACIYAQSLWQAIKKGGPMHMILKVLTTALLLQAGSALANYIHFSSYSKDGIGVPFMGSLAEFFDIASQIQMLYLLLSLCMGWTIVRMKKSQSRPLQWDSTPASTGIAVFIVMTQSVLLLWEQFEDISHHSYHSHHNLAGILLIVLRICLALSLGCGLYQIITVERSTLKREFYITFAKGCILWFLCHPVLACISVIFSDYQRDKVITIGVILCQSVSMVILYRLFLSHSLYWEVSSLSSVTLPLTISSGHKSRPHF
UniProt Q8IU85: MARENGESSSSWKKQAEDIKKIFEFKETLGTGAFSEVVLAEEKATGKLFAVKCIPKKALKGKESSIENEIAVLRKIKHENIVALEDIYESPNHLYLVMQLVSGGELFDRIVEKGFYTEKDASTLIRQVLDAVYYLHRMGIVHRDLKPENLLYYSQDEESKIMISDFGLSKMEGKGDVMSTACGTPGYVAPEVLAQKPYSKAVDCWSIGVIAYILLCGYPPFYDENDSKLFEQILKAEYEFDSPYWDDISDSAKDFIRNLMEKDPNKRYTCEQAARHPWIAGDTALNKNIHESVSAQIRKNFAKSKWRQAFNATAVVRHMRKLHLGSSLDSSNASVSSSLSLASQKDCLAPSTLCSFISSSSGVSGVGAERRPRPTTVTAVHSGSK
UniProt Q8N4T8: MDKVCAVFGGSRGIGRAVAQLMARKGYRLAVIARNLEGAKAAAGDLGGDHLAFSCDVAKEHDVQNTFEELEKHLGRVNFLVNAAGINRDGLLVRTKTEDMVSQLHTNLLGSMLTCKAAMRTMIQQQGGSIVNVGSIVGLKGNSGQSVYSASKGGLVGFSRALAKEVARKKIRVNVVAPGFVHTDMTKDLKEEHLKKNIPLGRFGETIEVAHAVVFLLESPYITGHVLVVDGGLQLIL
UniProt Q86X95: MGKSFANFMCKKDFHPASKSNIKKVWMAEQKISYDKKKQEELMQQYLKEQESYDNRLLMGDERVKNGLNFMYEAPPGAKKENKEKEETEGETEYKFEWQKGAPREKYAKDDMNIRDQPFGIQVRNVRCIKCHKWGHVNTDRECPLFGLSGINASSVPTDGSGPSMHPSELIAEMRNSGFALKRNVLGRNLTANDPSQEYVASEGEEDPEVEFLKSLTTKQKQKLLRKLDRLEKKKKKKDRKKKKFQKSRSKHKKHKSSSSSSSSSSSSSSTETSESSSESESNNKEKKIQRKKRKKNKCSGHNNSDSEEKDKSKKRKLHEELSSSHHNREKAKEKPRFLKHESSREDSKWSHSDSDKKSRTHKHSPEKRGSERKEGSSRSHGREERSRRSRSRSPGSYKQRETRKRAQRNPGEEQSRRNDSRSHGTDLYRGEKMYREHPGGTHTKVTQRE
UniProt Q7Z6V5: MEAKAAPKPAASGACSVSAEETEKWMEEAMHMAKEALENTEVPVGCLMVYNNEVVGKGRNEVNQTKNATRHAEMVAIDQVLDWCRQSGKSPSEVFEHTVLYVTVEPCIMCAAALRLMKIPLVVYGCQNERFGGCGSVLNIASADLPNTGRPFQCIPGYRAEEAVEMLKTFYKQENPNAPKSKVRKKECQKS
UniProt Q8N4C8: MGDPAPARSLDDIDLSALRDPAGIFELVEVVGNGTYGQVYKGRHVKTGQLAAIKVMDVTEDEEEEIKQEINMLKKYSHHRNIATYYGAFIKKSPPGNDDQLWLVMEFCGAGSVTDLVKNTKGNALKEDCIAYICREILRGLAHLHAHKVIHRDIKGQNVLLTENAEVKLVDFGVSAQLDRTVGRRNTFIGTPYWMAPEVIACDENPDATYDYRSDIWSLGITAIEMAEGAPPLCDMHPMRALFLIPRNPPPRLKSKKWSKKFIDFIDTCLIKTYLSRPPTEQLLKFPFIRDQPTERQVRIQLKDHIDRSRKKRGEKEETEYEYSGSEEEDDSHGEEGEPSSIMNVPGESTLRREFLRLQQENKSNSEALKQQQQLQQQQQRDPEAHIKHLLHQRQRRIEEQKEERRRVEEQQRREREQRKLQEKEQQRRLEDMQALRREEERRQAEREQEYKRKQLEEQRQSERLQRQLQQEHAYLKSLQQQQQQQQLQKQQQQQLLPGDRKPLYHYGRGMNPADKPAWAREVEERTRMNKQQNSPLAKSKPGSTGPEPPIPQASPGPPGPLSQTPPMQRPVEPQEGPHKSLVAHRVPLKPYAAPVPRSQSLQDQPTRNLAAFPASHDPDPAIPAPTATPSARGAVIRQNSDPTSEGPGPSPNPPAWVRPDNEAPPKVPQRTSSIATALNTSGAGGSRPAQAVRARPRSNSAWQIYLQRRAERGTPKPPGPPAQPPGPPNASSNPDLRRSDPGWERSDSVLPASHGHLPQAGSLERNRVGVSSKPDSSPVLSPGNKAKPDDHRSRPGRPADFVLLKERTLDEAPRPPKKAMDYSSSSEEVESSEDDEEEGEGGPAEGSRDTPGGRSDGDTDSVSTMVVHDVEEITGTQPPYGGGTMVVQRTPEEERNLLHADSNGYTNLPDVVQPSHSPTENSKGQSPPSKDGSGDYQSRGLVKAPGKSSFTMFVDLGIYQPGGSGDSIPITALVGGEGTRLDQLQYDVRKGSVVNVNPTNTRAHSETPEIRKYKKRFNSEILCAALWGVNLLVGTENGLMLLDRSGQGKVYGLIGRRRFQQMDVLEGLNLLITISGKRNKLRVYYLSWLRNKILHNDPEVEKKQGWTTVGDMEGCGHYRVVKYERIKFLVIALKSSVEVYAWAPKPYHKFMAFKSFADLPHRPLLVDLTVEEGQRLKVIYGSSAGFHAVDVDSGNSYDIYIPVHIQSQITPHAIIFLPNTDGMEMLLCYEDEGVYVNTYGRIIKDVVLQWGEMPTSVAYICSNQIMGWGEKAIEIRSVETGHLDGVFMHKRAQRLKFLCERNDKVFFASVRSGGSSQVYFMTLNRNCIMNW
UniProt Q8IVD9: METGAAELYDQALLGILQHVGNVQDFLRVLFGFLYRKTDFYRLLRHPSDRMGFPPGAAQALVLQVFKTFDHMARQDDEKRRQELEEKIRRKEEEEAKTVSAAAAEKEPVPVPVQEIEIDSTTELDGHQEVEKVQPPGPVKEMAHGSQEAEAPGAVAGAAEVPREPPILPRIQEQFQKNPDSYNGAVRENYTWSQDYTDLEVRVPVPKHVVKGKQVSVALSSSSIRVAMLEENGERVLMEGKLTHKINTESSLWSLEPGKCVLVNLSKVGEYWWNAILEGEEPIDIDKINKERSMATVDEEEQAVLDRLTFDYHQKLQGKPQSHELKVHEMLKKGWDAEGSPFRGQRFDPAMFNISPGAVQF
UniProt Q86UL3: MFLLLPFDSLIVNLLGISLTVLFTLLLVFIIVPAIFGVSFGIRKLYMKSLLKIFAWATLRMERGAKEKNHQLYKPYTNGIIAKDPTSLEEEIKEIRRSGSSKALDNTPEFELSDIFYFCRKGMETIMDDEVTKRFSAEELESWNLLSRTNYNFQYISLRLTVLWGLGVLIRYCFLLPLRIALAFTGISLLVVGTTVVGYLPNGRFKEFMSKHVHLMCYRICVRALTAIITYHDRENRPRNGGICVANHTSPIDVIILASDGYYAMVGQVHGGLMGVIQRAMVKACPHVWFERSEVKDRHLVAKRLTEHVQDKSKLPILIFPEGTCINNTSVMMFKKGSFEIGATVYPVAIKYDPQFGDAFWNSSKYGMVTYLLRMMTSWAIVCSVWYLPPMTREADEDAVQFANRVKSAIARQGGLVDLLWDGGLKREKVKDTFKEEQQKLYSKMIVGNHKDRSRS
UniProt Q86TU7: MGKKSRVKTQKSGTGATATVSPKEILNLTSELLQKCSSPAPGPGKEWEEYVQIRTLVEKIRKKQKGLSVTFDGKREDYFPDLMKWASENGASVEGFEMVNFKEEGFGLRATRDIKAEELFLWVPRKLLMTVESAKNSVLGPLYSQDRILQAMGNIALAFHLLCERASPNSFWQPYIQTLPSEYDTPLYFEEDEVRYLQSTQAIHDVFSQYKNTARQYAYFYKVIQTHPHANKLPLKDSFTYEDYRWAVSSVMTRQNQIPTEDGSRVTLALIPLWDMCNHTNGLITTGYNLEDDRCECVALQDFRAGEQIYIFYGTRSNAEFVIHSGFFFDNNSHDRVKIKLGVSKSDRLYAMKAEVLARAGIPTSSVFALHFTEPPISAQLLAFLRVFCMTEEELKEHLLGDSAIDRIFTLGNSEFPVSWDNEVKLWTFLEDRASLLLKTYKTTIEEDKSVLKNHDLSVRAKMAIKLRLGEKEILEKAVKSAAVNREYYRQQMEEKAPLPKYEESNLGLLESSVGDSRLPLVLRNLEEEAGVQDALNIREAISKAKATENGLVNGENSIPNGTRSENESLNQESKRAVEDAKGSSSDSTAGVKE
UniProt Q86UE4: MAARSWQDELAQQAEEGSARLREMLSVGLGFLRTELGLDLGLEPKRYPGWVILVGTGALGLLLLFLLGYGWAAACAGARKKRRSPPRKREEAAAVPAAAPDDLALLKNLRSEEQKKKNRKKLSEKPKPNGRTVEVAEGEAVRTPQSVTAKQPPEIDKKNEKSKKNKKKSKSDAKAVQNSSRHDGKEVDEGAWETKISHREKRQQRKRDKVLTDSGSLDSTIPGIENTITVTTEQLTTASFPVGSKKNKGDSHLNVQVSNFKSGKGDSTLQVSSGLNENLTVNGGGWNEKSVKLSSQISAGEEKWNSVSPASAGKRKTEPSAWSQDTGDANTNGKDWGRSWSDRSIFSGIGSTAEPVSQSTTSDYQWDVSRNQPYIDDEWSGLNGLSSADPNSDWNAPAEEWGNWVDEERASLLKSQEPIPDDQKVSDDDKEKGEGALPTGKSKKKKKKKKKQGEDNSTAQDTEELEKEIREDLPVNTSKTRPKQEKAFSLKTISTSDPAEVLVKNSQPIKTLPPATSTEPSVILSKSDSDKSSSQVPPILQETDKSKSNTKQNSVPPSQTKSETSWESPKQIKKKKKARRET
UniProt Q8N2K0: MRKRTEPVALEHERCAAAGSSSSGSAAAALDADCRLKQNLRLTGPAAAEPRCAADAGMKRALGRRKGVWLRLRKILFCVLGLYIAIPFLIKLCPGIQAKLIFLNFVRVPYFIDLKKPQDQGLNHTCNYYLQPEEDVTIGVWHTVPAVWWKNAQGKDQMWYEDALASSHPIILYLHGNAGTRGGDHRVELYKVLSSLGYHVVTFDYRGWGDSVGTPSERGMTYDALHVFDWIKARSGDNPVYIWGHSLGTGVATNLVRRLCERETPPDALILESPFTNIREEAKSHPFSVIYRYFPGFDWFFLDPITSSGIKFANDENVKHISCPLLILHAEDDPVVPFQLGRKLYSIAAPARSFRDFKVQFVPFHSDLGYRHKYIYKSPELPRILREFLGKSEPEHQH
UniProt Q86YB8: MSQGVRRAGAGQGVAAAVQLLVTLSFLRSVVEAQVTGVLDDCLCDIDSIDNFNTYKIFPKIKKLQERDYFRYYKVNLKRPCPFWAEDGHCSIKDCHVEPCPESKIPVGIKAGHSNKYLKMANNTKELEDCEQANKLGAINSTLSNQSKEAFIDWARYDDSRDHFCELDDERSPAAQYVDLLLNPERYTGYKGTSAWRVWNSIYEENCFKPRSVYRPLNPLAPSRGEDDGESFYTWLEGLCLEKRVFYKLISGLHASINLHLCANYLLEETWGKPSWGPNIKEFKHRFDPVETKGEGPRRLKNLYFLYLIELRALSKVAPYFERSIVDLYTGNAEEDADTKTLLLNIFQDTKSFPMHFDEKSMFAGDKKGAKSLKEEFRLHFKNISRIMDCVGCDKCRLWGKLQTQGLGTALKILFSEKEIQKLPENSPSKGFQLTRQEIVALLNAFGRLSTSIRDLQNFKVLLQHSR
UniProt Q86YS6: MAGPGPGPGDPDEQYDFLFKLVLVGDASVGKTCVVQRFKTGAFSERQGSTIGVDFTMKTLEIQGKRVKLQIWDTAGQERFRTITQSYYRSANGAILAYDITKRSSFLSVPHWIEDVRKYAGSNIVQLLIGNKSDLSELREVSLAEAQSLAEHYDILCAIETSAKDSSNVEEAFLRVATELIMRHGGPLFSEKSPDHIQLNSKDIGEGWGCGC
UniProt Q86WQ0: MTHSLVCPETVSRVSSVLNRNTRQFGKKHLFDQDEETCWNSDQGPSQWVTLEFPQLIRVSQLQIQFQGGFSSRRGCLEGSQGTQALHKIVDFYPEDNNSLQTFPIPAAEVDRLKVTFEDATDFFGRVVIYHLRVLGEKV
UniProt Q8N335: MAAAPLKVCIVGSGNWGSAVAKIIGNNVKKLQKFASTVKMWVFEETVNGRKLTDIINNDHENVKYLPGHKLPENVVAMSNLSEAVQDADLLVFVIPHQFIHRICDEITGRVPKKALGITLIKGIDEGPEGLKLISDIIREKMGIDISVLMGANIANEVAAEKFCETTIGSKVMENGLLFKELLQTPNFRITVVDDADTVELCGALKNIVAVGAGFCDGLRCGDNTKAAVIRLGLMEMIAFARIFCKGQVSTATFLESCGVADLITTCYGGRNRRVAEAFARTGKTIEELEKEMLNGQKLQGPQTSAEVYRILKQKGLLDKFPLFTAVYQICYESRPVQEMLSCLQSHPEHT

Compound in this assay: Nc1ncnc2c1ncn2[C@@H]1O[C@H](COP(=O)(O)OP(=O)(O)NP(=O)(O)O)[C@@H](O)[C@H]1O [adenylyl imidodiphosphate]
The assay is described as follows: NP40-soluble protein abundance relative to vehicle (solubility fold change) (ratio); higher = more soluble protein in presence of AMP-PNP. The gist of the method:
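Data come from three independent experiments in which Dounce-homogenised Jurkat crude lysate was treated at eight concentrations from 0.1 to 10 mM. Treatment ran 10 min at room temperature and then 3 min at 37 °C, after which 0.8% NP40 and benzonase were added for 60 min at 4 °C before ultracentrifugation. The supernatant underwent TMT labelling and LC-MS/MS, and vsn-normalised intensities were expressed as fold change against the detergent-processed vehicle in each replicate.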

± gives the standard deviation of the averaged measurements. The list shows a part of the results, in another mix than the full data. Most values lie at the level of the controls, where differences are scatter.

For the target RABEPK (UniProt Q7Z6M1), the NP40-soluble protein abundance is, setting by setting: (concentration: 0.1mM) 0.973 ± 0.034; (concentration: 0.5mM) 0.979 ± 0.017.
For PDSS2 (UniProt Q86YH6), the NP40-soluble protein abundance by setting is: (concentration: 0.1mM) 1 ± 0.021; (concentration: 0.5mM) 0.992 ± 0.013.
The matching figures for HSCB (UniProt Q8IWL3): 1.01 ± 0.042 and 1.01 ± 0.018.
The matching figures for TMEM173 (UniProt Q86WV6): 1.01 ± 0.029 and 0.9951 ± 0.0055.
For the target GPR180 (UniProt Q86V85), the NP40-soluble protein abundance (concentration: 0.1mM) was 0.939 ± 0.01 and the NP40-soluble protein abundance (concentration: 0.5mM) worked out at 0.952 ± 0.012.
Consider UniProt Q8IU85 and related entries, for which the NP40-soluble protein abundance (concentration: 0.1mM) was 1.01 ± 0.051 and the NP40-soluble protein abundance (concentration: 0.5mM) turned out to be 0.992 ± 0.083.
In the case of UniProt Q8IZ73 and related entries, the NP40-soluble protein abundance (concentration: 0.1mM) worked out at 0.986 ± 0.049 and the NP40-soluble protein abundance (concentration: 0.5mM) came out at 1 ± 0.032.
In the same order, the values of UniProt Q8NBP0 and related entries are 1 ± 0.024 and 0.979 ± 0.017.
In the same order, the values of UniProt Q8N5M4 and related entries are 0.933 ± 0.047 and 0.98 ± 0.096.
Consider C5orf24 (UniProt Q7Z6I8), for which the NP40-soluble protein abundance reads like this: (concentration: 0.1mM) 0.973 ± 0.015; (concentration: 0.5mM) 0.99 ± 0.024.
UniProt Q8N122 and related entries: the NP40-soluble protein abundance worked out at 0.974 ± 0.019 (concentration: 0.1mM) and 0.988 ± 0.021 (concentration: 0.5mM).
Turning to CBR4 (UniProt Q8N4T8), the NP40-soluble protein abundance turned out to be 0.993 ± 0.016 (concentration: 0.1mM) and 0.997 ± 0.068 (concentration: 0.5mM).
As to UniProt Q8N7H5 and related entries, the NP40-soluble protein abundance runs as follows: (concentration: 0.1mM) 0.987 ± 0.016; (concentration: 0.5mM) 1.01 ± 0.037.
For the target UniProt Q8N684 and related entries, the NP40-soluble protein abundance is, setting by setting: (concentration: 0.1mM) 0.9843 ± 0.0051; (concentration: 0.5mM) 1 ± 0.049.
Consider UniProt Q86X95, for which the NP40-soluble protein abundance is, setting by setting: (concentration: 0.1mM) 0.9639 ± 0.0095; (concentration: 0.5mM) 0.962 ± 0.027.
In the case of UniProt Q86TP1 and related entries, the NP40-soluble protein abundance (concentration: 0.1mM) was found to be 0.994 ± 0.027 and the NP40-soluble protein abundance (concentration: 0.5mM) came to 1.005 ± 0.0066.
The matching figures for UniProt Q8N8K9-2|Q8N8K9-3: 0.961 ± 0.045 and 0.975 ± 0.063.
Regarding UniProt Q8N5U6 and related entries, the NP40-soluble protein abundance by setting is: (concentration: 0.1mM) 0.971 ± 0.012; (concentration: 0.5mM) 0.996 ± 0.041.
Consider UniProt Q7Z6V5 and related entries, for which the NP40-soluble protein abundance runs as follows: (concentration: 0.1mM) 0.966 ± 0.055; (concentration: 0.5mM) 1.02 ± 0.039.
In the same order, the values of PM20D2 (UniProt Q8IYS1) are 1.02 ± 0.054 and 1.01 ± 0.076.
Regarding IRF2BP1 (UniProt Q8IU81), the NP40-soluble protein abundance is 0.986 ± 0.015 (concentration: 0.1mM) and 0.9641 ± 0.0091 (concentration: 0.5mM).
The matching figures for UniProt Q8N8A2 and related entries: 1.01 ± 0.015 and 0.981 ± 0.041.
In the case of UniProt Q8IXQ5 and related entries, the NP40-soluble protein abundance is, setting by setting: (concentration: 0.1mM) 0.995 ± 0.026; (concentration: 0.5mM) 0.993 ± 0.012.
UniProt Q86T03-2: the NP40-soluble protein abundance (concentration: 0.1mM) came out at 0.986 ± 0.054 and the NP40-soluble protein abundance (concentration: 0.5mM) is 1.02 ± 0.05.
On to UniProt Q8IXB1 and related entries, for which the NP40-soluble protein abundance came out at 0.989 ± 0.024 (concentration: 0.1mM) and 1.01 ± 0.042 (concentration: 0.5mM).
UniProt Q8N4C8 and related entries: the NP40-soluble protein abundance by setting is: (concentration: 0.1mM) 1.01 ± 0.047; (concentration: 0.5mM) 1.01 ± 0.036.
With NUDCD3 (UniProt Q8IVD9), the NP40-soluble protein abundance is, setting by setting: (concentration: 0.1mM) 0.961 ± 0.024; (concentration: 0.5mM) 1.03 ± 0.055.
Take UniProt Q8N371: the NP40-soluble protein abundance runs as follows: (concentration: 0.1mM) 1.03 ± 0.077; (concentration: 0.5mM) 0.998 ± 0.015.
As to UniProt Q86XP3 and related entries, the NP40-soluble protein abundance runs as follows: (concentration: 0.1mM) 1.02 ± 0.012; (concentration: 0.5mM) 0.999 ± 0.017.
Consider UniProt Q8IW35 and related entries, for which the NP40-soluble protein abundance (concentration: 0.1mM) is 0.998 ± 0.023 and the NP40-soluble protein abundance (concentration: 0.5mM) was found to be 0.984 ± 0.024.
For the target GPAT4 (UniProt Q86UL3), the NP40-soluble protein abundance (concentration: 0.1mM) was 1.01 ± 0.015 and the NP40-soluble protein abundance (concentration: 0.5mM) was determined as 1 ± 0.037.
Regarding UniProt Q7Z7L7, the NP40-soluble protein abundance runs as follows: (concentration: 0.1mM) 1.0216 ± 6.4e-05; (concentration: 0.5mM) 1.05 ± 0.016.
ZBTB2 (UniProt Q8N680): the NP40-soluble protein abundance (concentration: 0.1mM) worked out at 1 ± 0.038 and the NP40-soluble protein abundance (concentration: 0.5mM) is 1.01 ± 0.031.
As to UniProt Q86VX2 and related entries, the NP40-soluble protein abundance (concentration: 0.1mM) came out at 1.01 ± 0.016 and the NP40-soluble protein abundance (concentration: 0.5mM) was 1.05 ± 0.05.
The matching figures for UniProt Q8N4J0: 1.02 ± 0.053 and 0.99 ± 0.1.
On to CACUL1 (UniProt Q86Y37), for which the NP40-soluble protein abundance reads like this: (concentration: 0.1mM) 1.01 ± 0.059; (concentration: 0.5mM) 1.01 ± 0.048.
Take KIAA0319L (UniProt Q8IZA0): the NP40-soluble protein abundance stood at 0.982 ± 0.023 (concentration: 0.1mM) and 0.99 ± 0.032 (concentration: 0.5mM).
For SETD3 (UniProt Q86TU7), the NP40-soluble protein abundance by setting is: (concentration: 0.1mM) 0.9902 ± 0.0049; (concentration: 0.5mM) 0.983 ± 0.049.
In the same order, the values of MTDH (UniProt Q86UE4) are 0.99 ± 0.034 and 1.06 ± 0.052.
For WDFY1 (UniProt Q8IWB7), the NP40-soluble protein abundance (concentration: 0.1mM) is 0.992 ± 0.034 and the NP40-soluble protein abundance (concentration: 0.5mM) worked out at 0.996 ± 0.077.
For UniProt Q8N2K0 and related entries, the NP40-soluble protein abundance is 1.05 ± 0.019 (concentration: 0.1mM) and 1.05 ± 0.016 (concentration: 0.5mM).
As for ARHGAP30 (UniProt Q7Z6I6), the NP40-soluble protein abundance stood at 0.99 ± 0.012 (concentration: 0.1mM) and 0.997 ± 0.031 (concentration: 0.5mM).
The matching figures for UniProt Q86WJ1 and related entries: 1.03 ± 0.037 and 0.989 ± 0.045.
For TSEN54 (UniProt Q7Z6J9), the NP40-soluble protein abundance is 1.01 ± 0.028 (concentration: 0.1mM) and 0.994 ± 0.027 (concentration: 0.5mM).
For UniProt Q8N4Q1 and related entries, the NP40-soluble protein abundance runs as follows: (concentration: 0.1mM) 0.949 ± 0.034; (concentration: 0.5mM) 1.04 ± 0.1.
As to UniProt Q8IWI9 and related entries, the NP40-soluble protein abundance is, setting by setting: (concentration: 0.1mM) 0.997 ± 0.021; (concentration: 0.5mM) 0.991 ± 0.032.
On to PTAR1 (UniProt Q7Z6K3), for which the NP40-soluble protein abundance runs as follows: (concentration: 0.1mM) 0.995 ± 0.014; (concentration: 0.5mM) 0.995 ± 0.024.
In the case of UniProt Q86W50, the NP40-soluble protein abundance runs as follows: (concentration: 0.1mM) 0.968 ± 0.023; (concentration: 0.5mM) 0.962 ± 0.036.
The matching figures for ANKRD13A (UniProt Q8IZ07): 0.985 ± 0.034 and 0.996 ± 0.057.
For the target UniProt Q86YB8, the NP40-soluble protein abundance came out at 0.984 ± 0.025 (concentration: 0.1mM) and 0.9849 ± 0.0072 (concentration: 0.5mM).
On to UniProt Q86V88 and related entries, for which the NP40-soluble protein abundance is, setting by setting: (concentration: 0.1mM) 0.9882 ± 0.0098; (concentration: 0.5mM) 0.987 ± 0.013.
PRPF39 (UniProt Q86UA1): the NP40-soluble protein abundance runs as follows: (concentration: 0.1mM) 0.988 ± 0.022; (concentration: 0.5mM) 0.983 ± 0.046.
Consider RAB43 (UniProt Q86YS6), for which the NP40-soluble protein abundance was found to be 1.03 ± 0.046 (concentration: 0.1mM) and 0.984 ± 0.06 (concentration: 0.5mM).
In the same order, the values of UniProt Q8IYH5 and related entries are 0.949 ± 0.018 and 0.982 ± 0.045.
On to UniProt Q86TI2 and related entries, for which the NP40-soluble protein abundance is, setting by setting: (concentration: 0.1mM) 0.989 ± 0.049; (concentration: 0.5mM) 0.965 ± 0.071.
With CMIP (UniProt Q8IY22), the NP40-soluble protein abundance reads like this: (concentration: 0.1mM) 0.997 ± 0.021; (concentration: 0.5mM) 0.987 ± 0.02.
On to UniProt Q86WQ0 and related entries, for which the NP40-soluble protein abundance is, setting by setting: (concentration: 0.1mM) 1.02 ± 0.068; (concentration: 0.5mM) 1.06 ± 0.038.
For the target GPD1L (UniProt Q8N335), the NP40-soluble protein abundance was 0.969 ± 0.015 (concentration: 0.1mM) and 0.9813 ± 0.0024 (concentration: 0.5mM).
Turning to STX12 (UniProt Q86Y82), the NP40-soluble protein abundance reads like this: (concentration: 0.1mM) 0.964 ± 0.032; (concentration: 0.5mM) 0.997 ± 0.067.
